Results taken from article PMC11231609.

Chains of the proteins cited; added tags and fusions are not shown. Residues count along the entry.
UniProt Q16602, residues 23-461: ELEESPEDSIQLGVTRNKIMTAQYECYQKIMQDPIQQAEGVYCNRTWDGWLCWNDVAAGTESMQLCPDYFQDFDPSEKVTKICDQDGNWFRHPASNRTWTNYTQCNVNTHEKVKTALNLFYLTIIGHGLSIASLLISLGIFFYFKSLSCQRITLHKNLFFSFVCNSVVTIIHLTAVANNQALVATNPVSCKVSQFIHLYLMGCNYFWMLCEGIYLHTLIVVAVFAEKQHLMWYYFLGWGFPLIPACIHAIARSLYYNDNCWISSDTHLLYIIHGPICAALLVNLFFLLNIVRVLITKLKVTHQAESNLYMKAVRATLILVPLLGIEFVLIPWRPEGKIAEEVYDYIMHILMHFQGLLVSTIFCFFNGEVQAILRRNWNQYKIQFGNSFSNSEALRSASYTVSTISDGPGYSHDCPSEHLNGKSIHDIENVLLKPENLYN

Molecular target: calcitonin receptor-like receptor (human (endogenous in HDLEC)) (UniProt Q16602)
Test: affinity purification with mass spectrometry; IP of endogenous CLR from precleared HDLEC RIPA lysate (600 ug protein) with rabbit anti-human CLR immune serum LN-1436, protein G magnetic beads, 4 C, washes in 50 mM Tris pH 7.4, 150 mM NaCl without detergent; on-bead digestion, label-free quantitative nano LC-MS/MS; control IP with preimmune serum of the same rabbit; four independent experiments

B1: nucleoporin 93 (protein, UniProt Q8N1F7 1-819)
chain: MDTEGFGELLQQAEQLAAETEGISELPHVERNLQEIQQAGERLRSRTLTRTSQETADVKASVLLGSRGLDISHISQRLESLSAATTFEPLEPVKDTDIQGFLKNEKDNALLSAIEESRKRTFGMAEEYHRESMLVEWEQVKQRILHTLLASGEDALDFTQESEPSYISDVGPPGRSSLDNIEMAYARQIYIYNEKIVNGHLQPNLVDLCASVAELDDKSISDMWTMVKQMTDVLLTPATDALKNRSSVEVRMEFVRQALAYLEQSYKNYTLVTVFGNLHQAQLGGVPGTYQLVRSFLNIKLPAPLPGLQDGEVEGHPVWALIYYCMRCGDLLAASQVVNRAQHQLGEFKTWFQEYMNSKDRRLSPATENKLRLHYRRALRNNTDPYKRAVYCIIGRCDVTDNQSEVADKTEDYLWLKLNQVCFDDDGTSSPQDRLTLSQFQKQLLEDYGESHFTVNQQPFLYFQVLFLTAQFEAAVAFLFRMERLRCHAVHVALVLFELKLLLKSSGQSAQLLSHEPGDPPCLRRLNFVRLLMLYTRKFESTDPREALQYFYFLRDEKDSQGENMFLRCVSELVIESREFDMILGKLENDGSRKPGVIDKFTSDTKPIINKVASVAENKGLFEEAAKLYDLAKNADKVLELMNKLLSPVVPQISAPQSNKERLKNMALSIAERYRAQGISANKFVDSTFYLLLDLITFFDEYHSGHIDRAFDIIERLKLVPLNQESVEERVAAFRNFSDEIRHNLSEVLLATMNILFTQFKRLKGTSPSSSSRPQRVIEDRDSQLRSQARTLITFAGMIPYRTSGDTNARLVQMEVLMN
With B1 the binding was “binds”.

No constants are given. Whether binding was seen depends on the method and setting. In cells and extracts the contact can be indirect. These calls come from enrichment with a bait or labelling near it, and not all partners need be listed.
